The campaign covered roughly 390,000 compounds. About 820 (0.21%) were called active. Calls come from the whole dose curve; as a rule, active = well fitted inhibition curve with a large enough effect; inconclusive = small, poorly fitted or top-dose-only effect, or another doubt; inactive = no such curve, though single readings can be large or run the other way. Inconclusive means that the source gave no clear call. Potencies beside an inconclusive call are fits to weak or partial responses and may not hold up.
target: Histone acetyltransferase KAT2A (Homo sapiens) (UniProt Q92830); experiment: qHTS Assay for Inhibitors of GCN5L2; details: GCN5L2 HAT assay, ThioGlo1 CoA-SH fluorescence; series mostly up to 58.9 µM
Excerpt: Histone acetyltransferase (HAT) enzymes transfer a […] group from acetyl-coenzyme A to the epsilon-amino group of conserved lysine residues of N-terminal histone tails. Acetylation results in charge neutralization of this positively charged amino acid, decreasing interactions with the […] backbone and making the DNA more accessible for transcription. HATs have been recognized as an emerging drug target for treatment of cancer, diabetes, asthma, chronic obstructive pulmonary disease, cardiac disease, and viral infection. Protein identified with HAT activity include the […] like 2 (GCN5L2, a.ka. Histone acetyltransferase KAT2A) which acetylates histone H3 at Lys9, 14, 18, 13, and to lesser extent histones H4 and H2B. This activates transcription of the gene by modulating chromatin structure and installing the acetyllysine recognition mark for bromodomain-containing coactivator proteins.
A quantitative high throughput screen was developed to identify small molecule inhibitors. The assay is based on the principle that it measures formation of reduced CoA with the pro-fluorescent maleimide derivative ThioGlo1 that becomes fluorescent upon reaction with the free thiol of CoA.
A large number of artifacts are expected in this primary screen, compounded by the assay format (fluorescent artifacts) and by the high top concentration tested for each substance. This BioAssay data deposition should be used with caution, and counterscreen and secondary assay validation is essential since very few actives from the primary screen are expected to be true inhibitors of GCN5L2.
[2] Yasgar, et al. Compound Management for Quantitative High-Throughput Screening. JALA. 2008 Apr;13(2):79-89.
[3] Inglese, et al. Quantitative high-throughput screening: a titration-based approach that efficiently identifies biological activities in large chemical libraries. Proc Natl Acad Sci. 1;103(31):11473-8. 2006. PMID: 16864780
NIH Molecular Libraries Probe Production Network [MLPCN]
NIH Chemical Genomics Center [NCGC]
Structural Genomics Consortium (SGC)
To each well of a 1,536w plate, 3ul of GCN5L2 (final concentration 20nM, in 50mM HEPES, 0.1mM EDTA (pH 7.5), 0.01% Tween-20 buffer) are added using a Kalypsys dispenser. Only buffer is added to some wells as a control. A Kalypsys pin-tool transferred 23nl of library compound solution in DMSO to each well, as well as the control inhibit garcinol. . Following a 15 min incubation of enzyme with compounds at room temperature, 1ul mixture of ThioGlo1 (50uM final), H3(1-25) peptide (75uM final), and Acetyl-CoA (70uM final) is added. Plates are read immediately on the ViewLux (PerkinElmer) (Ex340nm/Em540nm) for a 0 min read, incubated for 20 min at room temperature, and read again on the ViewLux with the same settings. The initial read was carried out to identify compounds that are potentially fluorescent.
Potency is the fitted concentration of half-maximal effect.

The chains behind the UniProt entries cited, without tags or fusion partners.
UniProt Q92830, whole entry, looked up: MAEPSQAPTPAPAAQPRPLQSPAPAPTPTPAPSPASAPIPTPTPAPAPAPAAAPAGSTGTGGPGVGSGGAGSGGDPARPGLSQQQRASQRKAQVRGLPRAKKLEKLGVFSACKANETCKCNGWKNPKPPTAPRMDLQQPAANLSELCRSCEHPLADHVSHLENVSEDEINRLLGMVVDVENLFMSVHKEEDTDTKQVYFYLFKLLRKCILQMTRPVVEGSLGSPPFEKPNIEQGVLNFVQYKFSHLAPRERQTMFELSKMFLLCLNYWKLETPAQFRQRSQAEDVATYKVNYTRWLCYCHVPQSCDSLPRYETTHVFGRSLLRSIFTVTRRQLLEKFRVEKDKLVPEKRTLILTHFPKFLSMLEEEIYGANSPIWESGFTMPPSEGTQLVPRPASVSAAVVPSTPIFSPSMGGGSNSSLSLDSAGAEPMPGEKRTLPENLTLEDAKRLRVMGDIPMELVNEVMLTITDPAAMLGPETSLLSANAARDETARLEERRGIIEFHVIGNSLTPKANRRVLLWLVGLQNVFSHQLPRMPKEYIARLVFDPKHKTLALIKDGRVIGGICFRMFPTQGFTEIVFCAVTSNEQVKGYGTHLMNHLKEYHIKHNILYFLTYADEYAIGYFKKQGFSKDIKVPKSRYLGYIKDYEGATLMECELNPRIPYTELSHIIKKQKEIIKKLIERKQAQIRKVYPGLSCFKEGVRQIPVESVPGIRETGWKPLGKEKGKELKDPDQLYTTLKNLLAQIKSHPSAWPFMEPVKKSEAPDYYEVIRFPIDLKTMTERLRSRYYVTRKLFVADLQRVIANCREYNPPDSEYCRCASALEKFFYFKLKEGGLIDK

SMILES	Potency
Cc1cc(N2C(=O)C(O)=C(C(=O)c3cc4ccccc4o3)C2c2ccc(Cl)cc2)no1 (centres undefined)	inconclusive: 39.8 µM [inhibitor, single point]
CCOC(=O)c1sc(N2C(=O)C(O)=C(C(=O)c3ccc(C)o3)C2c2cccc([N+](=O)[O-])c2)nc1C (centres undefined)	inconclusive: 0.562 µM [inhibitor, full curve, poor fit]
CCS(=O)(=O)C1=NN2C(=N)/C(=C\c3ccc(OS(=O)(=O)c4ccccc4)c(OC)c3)C(=O)N=C2S1	inconclusive: 35.5 µM [inhibitor, single point]
COc1cccc(C2C3=C(N=c4s/c(=C\c5ccc(OCC(=O)O)cc5)c(=O)n42)c2ccccc2CC3)c1 (centres undefined)	inconclusive: 39.8 µM [inhibitor, single point]
COc1cc(/C=C2\C(=N)N3N=C(S(C)(=O)=O)SC3=NC2=O)cc(OC)c1OCCOc1cccc(C)c1	inconclusive: 39.8 µM [inhibitor, single point]
O=C(O)Cn1cc(/C=c2/sc3nc4ccccc4n3c2=O)c2ccccc21	inconclusive: 39.8 µM [inhibitor, single point]
Cc1cc(C)cc(-n2cccc2/C=C2/C(=N)N3C(=NC2=O)SN=C3S(C)(=O)=O)c1	inconclusive: 39.8 µM [inhibitor, single point]
COc1cc(/C=C2/C(=O)NN(c3ccc(Cl)cc3)C2=O)cc(Br)c1O	inconclusive: 39.8 µM [inhibitor, single point]
Cc1cc(N2C(=O)C(O)=C(C(=O)c3cc4ccccc4o3)C2c2cccc(Br)c2)no1 (centres undefined)	inconclusive: 31.6 µM [inhibitor, partial curve]
CCOc1cc(/C=C2/C(=N)N3C(=NC2=O)SN=C3S(C)(=O)=O)ccc1OS(=O)(=O)c1ccccc1	inconclusive: 39.8 µM [inhibitor, partial curve, poor fit]
CCCCCCc1c(C)c2ccc(OCC(=O)N[C@@H](Cc3ccccc3)C(=O)O)cc2oc1=O	inconclusive: 39.8 µM [inhibitor, single point]
CC(c1ccccc1)N1C(=O)c2ccc(C(=O)Nc3ccccc3C(=O)O)cc2C1=O (centres undefined)	inconclusive: 17.8 µM [inhibitor, partial curve]
Cc1ccc(S(=O)(=O)Oc2ccc(/C=C3/C(=N)N4C(=NC3=O)SN=C4S(C)(=O)=O)cc2)cc1	inconclusive: 22.4 µM [inhibitor, partial curve]
O=C(Nc1ccc(C(=O)O)cc1)/C(=C\C=C\c1ccccc1)NC(=O)c1cccc(Br)c1	inconclusive: 31.6 µM [inhibitor, single point]
CCOc1cc(/C=C2\C(=O)N(c3cccc(C(=O)O)c3)N=C2C(F)(F)F)ccc1OCC(=O)Nc1ccccc1OC	inconclusive: 28.2 µM [inhibitor, single point]
Cc1ccc(S(=O)(=O)Oc2ccc(/C=C3\C(=N)N4N=C(S(C)(=O)=O)SC4=NC3=O)cc2)cc1	inconclusive: 11.2 µM [inhibitor, partial curve, poor fit]
CCOc1cc(/C=C2/C(=N)N3C(=NC2=O)SN=C3S(=O)(=O)CC)ccc1OC(=O)c1ccco1	inconclusive: 39.8 µM [inhibitor, single point]
CCCOc1ccc(C2C(C(=O)c3cc4ccccc4o3)=C(O)C(=O)N2c2cc(C)on2)cc1 (centres undefined)	inconclusive: 28.2 µM [inhibitor, single point]
Cc1c(CC(=O)O)c(=O)oc2c(C)c3occ(-c4ccc(Br)cc4)c3cc12	inconclusive: 22.4 µM [inhibitor, single point]

Looked up above.
Cc1cc(N2C(=O)C(O)=C(C(=O)c3cc4ccccc4o3)C2c2cccc(Br)c2)no1 (centres undefined) | Potency: inconclusive: 31.6 µM [inhibitor, partial curve]
COc1cc(/C=C2\C(=N)N3N=C(S(C)(=O)=O)SC3=NC2=O)cc(OC)c1OCCOc1cccc(C)c1 | Potency: inconclusive: 39.8 µM [inhibitor, single point]

— PubChem BioAssay AID504327 (National Center for Advancing Translational Sciences (NCATS), 2011)
